Measured values from the supplement of paper PMC4604168 (melanoma cell lines).
This is one part of the list. Single values are uncertain, as repeats are few or missing.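 The apoptosis fraction was the count of cleaved-PARP antibody-stained nuclei relative to all DNA-stained nuclei, imaged in 1,536-well plates. Screening doses were set so most cells survived, and baseline and induced cleaved-PARP levels vary greatly across cell lines.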

system: SkMel30; test: cleaved PARP positive nuclei fraction relative to DMSO control; melanoma cells; higher = more apoptosis; conditions: library dose: low library concentration; 72 h

In order of rising “cleaved PARP positive nuclei fraction” value:
1. C[C@]1(O)C[C@@H](c2nc(-c3ccc4ccc(-c5ccccc5)nc4c3)c3c(N)nccn32)C1 + CS(=O)(=O)c1ccc(C(=O)Nc2ccc(Cl)c(-c3ccccn3)c2)c(Cl)c1 [vismodegib] (first compound 0.4 µM, partner dose 1 µM)  34.8%
2. COc1ccc(C2=N[C@@H](c3ccc(Cl)cc3)[C@@H](c3ccc(Cl)cc3)N2C(=O)N2CCNC(=O)C2)c(OC(C)C)c1 [Nutlin-3] + CC(=O)c1c(C)c2cnc(Nc3ccc(N4CCNCC4)cn3)nc2n(C2CCCC2)c1=O [palbociclib] (first compound 0.1 µM, partner dose 0.04 µM)  45.1%
3. NC(=O)c1ccc(N(C(N)=O)c2c(F)cccc2F)nc1-c1ccc(F)cc1F + C=C(c1ccc(C(=O)O)cc1)c1cc2c(cc1C)C(C)(C)CCC2(C)C [Bexarotene] (first compound 0.4 µM, partner dose 2 µM)  63.8%
4. Cn1sc(=O)n(Cc2ccccc2)c1=O + Clc1ccc(Nc2nnc(Cc3ccncc3)c3ccccc23)cc1 [vatalanib] (first compound 0.4 µM, partner dose 2 µM)  73.4%
5. Cn1cnc2c(F)c(Nc3ccc(Br)cc3Cl)c(C(=O)NOCCO)cc21 [selumetinib] + O=C(O)[C@@H]1[O][Sb](=[O])([O][Sb]2(=[O])[O][C@H]([C@H](O)CO)[C@H](O)[C@H](C(=O)O)[O]2)[O][C@H]([C@H](O)CO)[C@@H]1O [stibogluconate] (first compound 0.015 µM, partner dose 2 µM)  73.9%
6. CC1(C)CCC(c2ccc(Cl)cc2)=C(CN2CCN(c3ccc(C(=O)NS(=O)(=O)c4ccc(N[C@H](CCN5CCOCC5)CSc5ccccc5)c(S(=O)(=O)C(F)(F)F)c4)cc3)CC2)C1 + OCc1c[nH]c2ccccc12 [Indole-3-carbinol] (first compound 0.4 µM, partner dose 0.8 µM)  85.4%
7. C[C@@H](N)c1ccc(C(=O)Nc2ccnc3[nH]ccc23)cc1 + C=CCNC1=C2C[C@@H](C)C[C@H](OC)[C@H](O)[C@@H](C)/C=C(\C)[C@H](OC(N)=O)[C@@H](OC)/C=C\C=C(/C)C(=O)NC(=CC1=O)C2=O [Tanespimycin] (first compound 0.4 µM, partner dose 0.002 µM)  86.6%
8. NC(=O)c1ccc(N(C(N)=O)c2c(F)cccc2F)nc1-c1ccc(F)cc1F + Clc1ccc(Nc2nnc(Cc3ccncc3)c3ccccc23)cc1 [vatalanib] (first compound 0.4 µM, partner dose 2 µM)  88.6%
9. COc1ccc(C2=N[C@@H](c3ccc(Cl)cc3)[C@@H](c3ccc(Cl)cc3)N2C(=O)N2CCNC(=O)C2)c(OC(C)C)c1 [Nutlin-3] + Cn1c(=O)n(-c2ccc(C(C)(C)C#N)cc2)c2c3cc(-c4cnc5ccccc5c4)ccc3ncc21 [NVP-BEZ235] (first compound 0.1 µM, partner dose 0.004 µM)  98.7%
10. Cn1cnc2c(F)c(Nc3ccc(Br)cc3Cl)c(C(=O)NOCCO)cc21 [selumetinib] + CCN(CC)CCNC(=O)c1c(C)[nH]c(/C=C2\C(=O)Nc3ccc(F)cc32)c1C [sunitinib] (first compound 0.015 µM, partner dose 0.4 µM)  149%
11. Cn1cnc2c(F)c(Nc3ccc(Br)cc3Cl)c(C(=O)NOCCO)cc21 [selumetinib] + C[C@@H](Oc1cc(-c2cnn(C3CCNCC3)c2)cnc1N)c1c(Cl)ccc(F)c1Cl [Crizotinib] (first compound 0.015 µM, partner dose 0.2 µM)  151%
12. C[C@]1(O)C[C@@H](c2nc(-c3ccc4ccc(-c5ccccc5)nc4c3)c3c(N)nccn32)C1 + Cc1cc(Nc2cc(N3CCN(C)CC3)nc(/C=C/c3ccccc3)n2)n[nH]1 [ENMD2076] (first compound 0.4 µM, partner dose 0.04 µM)  166%
13. Cn1sc(=O)n(Cc2ccccc2)c1=O + CN(c1ncccc1CNc1nc(Nc2ccc3c(c2)CC(=O)N3)ncc1C(F)(F)F)S(C)(=O)=O [PF562271] (first compound 0.4 µM, partner dose 0.08 µM)  188%
14. C[C@]1(O)C[C@@H](c2nc(-c3ccc4ccc(-c5ccccc5)nc4c3)c3c(N)nccn32)C1 + Nc1cccc2c1CN(C1CCC(=O)NC1=O)C2=O [lenalidomide] (first compound 0.4 µM, partner dose 1 µM)  218%
15. Cn1cnc2c(F)c(Nc3ccc(Br)cc3Cl)c(C(=O)NOCCO)cc21 [selumetinib] + Cn1nnc2c(C(N)=O)ncn2c1=O [temozolomide] (first compound 0.015 µM, partner dose 2 µM)  264%
16. CC(=O)O[C@@]12CO[C@@H]1C[C@H](O)[C@@]1(C)C(=O)[C@H](O)C3=C(C)[C@@H](OC(=O)[C@H](O)[C@@H](NC(=O)OC(C)(C)C)c4ccccc4)C[C@@](O)([C@@H](OC(=O)c4ccccc4)[C@H]21)C3(C)C [Docetaxel] + NC1(c2ccc(-c3nc4ccn5c(=O)[nH]nc5c4cc3-c3ccccc3)cc2)CCC1 [MK2206] (first compound 0.0001 µM, partner dose 0.4 µM)  341%
